{"source": "the supplement of paper PMC5949888", "note": "± gives the standard deviation of the averaged measurements. Most values lie at the floor of the assay. Slopes are relative: functional sequences can read slightly below zero.", "data": [{"tested_on": "Saccharomyces cerevisiae PS128 hsf1 delta, HSF1(1-493) fusion", "experiment": "growth estimate (transactivation domain function in HSF1 fusion, heat-shock survival) (a.u. (slope of normalised read count over time)); higher = stronger growth at 37°C, i.e. more transactivation activity", "conditions": "library: random library", "values": [{"substance": "NLLQSLAVPRGWRGTSCDTA", "growth estimate": "< -0.25"}, {"substance": "IGVYLPRMYTYGTVIRAILA", "growth estimate": "< -0.25"}, {"substance": "SPGVVGVRGGKICLLTRIPI", "growth estimate": "< -0.25"}, {"substance": "VLP", "growth estimate": "-0.0333 ± 0.31"}, {"substance": "ACIQSRSWEGDFRLADNYLK", "growth estimate": "< -0.25"}, {"substance": "KDNGPYANFRTVPHKCITRL", "growth estimate": "< -0.25"}, {"substance": "LIALPELINSRRFGEQIPKR", "growth estimate": "< -0.25"}, {"substance": "GVICYKEQGLVSLLKTPTHQ", "growth estimate": "< -0.25"}, {"substance": "RARHESTLIPGGNSP", "growth estimate": "< -0.25"}, {"substance": "RVLPTSPGLGRGDDCLVHHD", "growth estimate": "< -0.25"}, {"substance": "VGWGAYGHAGENVIEWVKGR", "growth estimate": "< -0.25"}, {"substance": "PLLLSHISGSDRPSKRSVLT", "growth estimate": "< -0.25"}, {"substance": "SYLFRFTLPCKKYQYQLEQV", "growth estimate": "< -0.25"}, {"substance": "IQQVRGAYRASSCSARRAQL", "growth estimate": "< -0.25"}, {"substance": "CALF", "growth estimate": "< -0.25"}, {"substance": "RPSFGPVDGSASNLKPSETC", "growth estimate": "< -0.25"}, {"substance": "GYATLDLCALRGGVVKMAEA", "growth estimate": "< -0.25"}, {"substance": "AYEAAFTRAGSAERGICGII", "growth estimate": "< -0.25"}, {"substance": "TWSILPQCRETRCLPLRATR", "growth estimate": "< -0.25"}, {"substance": "PNIVSGYTPVRKAIKTGHEG", "growth estimate": "< -0.25"}, {"substance": "GLSPIPIKHTADNIPPDGTA", "growth estimate": "< -0.25"}, {"substance": "PMLG", "growth estimate": "< -0.25"}, {"substance": "RVVA", "growth estimate": "< -0.25"}, {"substance": "SGKAHLLSWSLSVHMHHTLG", "growth estimate": "< -0.25"}, {"substance": "GARVGIWGRW", "growth estimate": "< -0.25"}, {"substance": "DKCIQQLCRLPR", "growth estimate": "< -0.25"}, {"substance": "CKSQAPRKLP", "growth estimate": "< -0.25"}, {"substance": "AGWDRA", "growth estimate": "< -0.25"}, {"substance": "RDKGHEIVSESLTYRYSRLK", "growth estimate": "< -0.25"}, {"substance": "VKRVG", "growth estimate": "< -0.25"}, {"substance": "AYSQLGEGTRAINS", "growth estimate": "< -0.25"}, {"substance": "VSWV", "growth estimate": "< -0.25"}, {"substance": "LNAGCSCRVTRQ", "growth estimate": "< -0.25"}, {"substance": "GRLVGLYVETEYSLLCLVQR", "growth estimate": "< -0.25"}, {"substance": "RHSTGGFGSLTNAHCGAYS", "growth estimate": "< -0.25"}, {"substance": "QYEGVRRNHADSNTVIKRMP", "growth estimate": "< -0.25"}, {"substance": "VGLRAIHELLIAIDV", "growth estimate": "< -0.25"}, {"substance": "TGRYEKGTL", "growth estimate": "< -0.25"}, {"substance": "WGGGLRVGQLSGQVSLRFFC", "growth estimate": "< -0.25"}, {"substance": "LPTRTAEVGKHRALLVY", "growth estimate": -0.196}, {"substance": "GTCEGASKCLL", "growth estimate": "< -0.25"}, {"substance": "LFSGVRWGDHSG", "growth estimate": "< -0.25"}, {"substance": "HQRGLREYEDNLLAPLVSGR", "growth estimate": "< -0.25"}, {"substance": "LDVGSLCRLTAVRLWRTKPD", "growth estimate": "< -0.25"}, {"substance": "IRQSRLLVRVIGAEQAVTCR", "growth estimate": "< -0.25"}, {"substance": "KLVGISSTIIGTAAKVVHAS", "growth estimate": "< -0.25"}, {"substance": "TVLHGAVFLKLHSRSAINFW", "growth estimate": "< -0.25"}, {"substance": "CPHDTVRGNFSDNSSRNV", "growth estimate": "< -0.25"}, {"substance": "GGLMFE", "growth estimate": "< -0.25"}, {"substance": "YGWINRGASRQVATARGIPR", "growth estimate": "< -0.25"}, {"substance": "TANQETLMTHGRRRFSAFAS", "growth estimate": "< -0.25"}, {"substance": "HLFKRQRGFQQLASQPHRGP", "growth estimate": "< -0.25"}, {"substance": "PLRGKRG", "growth estimate": "< -0.25"}, {"substance": "LRGMLICAEWETA", "growth estimate": "< -0.25"}, {"substance": "EVRIVEDDDCE", "growth estimate": "< -0.25"}, {"substance": "RIN", "growth estimate": "< -0.25"}, {"substance": "EDFDQCGSEVWL", "growth estimate": 0.163}, {"substance": "LASYEIFIRKHLNGHYRCVR", "growth estimate": "< -0.25"}, {"substance": "PGAAKCQPTFLFDSPIQ", "growth estimate": "< -0.25"}, {"substance": "PLKPISLRTRKGMSLYFRTS", "growth estimate": "< -0.25"}, {"substance": "TQRQGVVLALMC", "growth estimate": "< -0.25"}, {"substance": "RNALVGVDGITLCRHGRVRT", "growth estimate": "< -0.25"}, {"substance": "IKDCSYSLAPILIRVFGIRG", "growth estimate": "< -0.25"}, {"substance": "VAPPGGVGSLLTGASKGTSG", "growth estimate": "< -0.25"}, {"substance": "VYFAELRDFRRFNMRMVLAY", "growth estimate": "< -0.25"}, {"substance": "VGGFKHYSSMWLYWLSRLDG", "growth estimate": "< -0.25"}, {"substance": "GSDGVRFRWAGWPGCCLGDV", "growth estimate": "< -0.25"}, {"substance": "GDGTSIEHSRDNGVCLRGVP", "growth estimate": "< -0.25"}, {"substance": "LPTAVYVFVRTQSLQVP", "growth estimate": "< -0.25"}, {"substance": "GRRPRSSVRVSGYSHHIQGY", "growth estimate": "< -0.25"}, {"substance": "FAVPARNRKNSWHFLMNGCV", "growth estimate": "< -0.25"}, {"substance": "ASANEAYAWGFSGDNETTRK", "growth estimate": "< -0.25"}, {"substance": "RVSWDHTSGAPIIDLIGL", "growth estimate": "< -0.25"}, {"substance": "GLYAC", "growth estimate": "< -0.25"}, {"substance": "NPIGEFEISRRKKGLSKVVV", "growth estimate": "< -0.25"}, {"substance": "TRAAILVTLLLLFR", "growth estimate": "< -0.25"}, {"substance": "RLE", "growth estimate": "< -0.25"}, {"substance": "KKGAPFSLRFYRFRSWSTE", "growth estimate": -0.231}, {"substance": "GWETNQVCRTNFLEAPRKVR", "growth estimate": "< -0.25"}, {"substance": "NDL", "growth estimate": "< -0.25"}, {"substance": "QFRGCKIYLV", "growth estimate": "< -0.25"}, {"substance": "FRRV", "growth estimate": "< -0.25"}, {"substance": "QGDLRVTHDRWGFVWCWADA", "growth estimate": -0.23}, {"substance": "SYEFLSRTTPRCSVSMLRFS", "growth estimate": "< -0.25"}, {"substance": "LLGQA", "growth estimate": "< -0.25"}, {"substance": "MFVFYSRDRFRHLYVRTTDV", "growth estimate": "< -0.25"}, {"substance": "LILDTSG", "growth estimate": "< -0.25"}, {"substance": "SRRAF", "growth estimate": "< -0.25"}, {"substance": "DRNFICGEGAVRVFAP", "growth estimate": "< -0.25"}, {"substance": "VAGCGRDIQRVDSLLSSCRS", "growth estimate": "< -0.25"}, {"substance": "LYV", "growth estimate": "< -0.25"}, {"substance": "SEQDFVSGYREKFWSYLIRV", "growth estimate": -0.221}, {"substance": "VRTTLTRQCHSSVIAPRSFS", "growth estimate": "< -0.25"}, {"substance": "MFSHLLKSSGSPIRIEYPLS", "growth estimate": "< -0.25"}, {"substance": "ILRCMQPNKTNWVFLTPQSR", "growth estimate": "< -0.25"}, {"substance": "TRLSDQLACGKQSSKPPRYP", "growth estimate": "< -0.25"}, {"substance": "RKTTFLEP", "growth estimate": "< -0.25"}, {"substance": "YIRS", "growth estimate": "< -0.25"}]}]}
